Consider three molecules from article doi:10.1101/2022.12.18.520920.

Assay [1] has as its target T1, Venus-N:AtHB23 (Arabidopsis thaliana) (UniProt Q8LFD3).
T1 sequence: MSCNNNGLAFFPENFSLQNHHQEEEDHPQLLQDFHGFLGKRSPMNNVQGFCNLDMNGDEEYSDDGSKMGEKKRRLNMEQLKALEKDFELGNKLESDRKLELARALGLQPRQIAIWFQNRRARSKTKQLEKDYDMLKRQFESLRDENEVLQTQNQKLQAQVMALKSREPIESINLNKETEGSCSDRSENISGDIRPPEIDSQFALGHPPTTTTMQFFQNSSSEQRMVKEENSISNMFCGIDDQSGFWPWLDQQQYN
Description: split reporter.

The target of assay [2] is T2, Venus-C:AtHB23 (Arabidopsis thaliana) (UniProt Q8LFD3).
T2 sequence: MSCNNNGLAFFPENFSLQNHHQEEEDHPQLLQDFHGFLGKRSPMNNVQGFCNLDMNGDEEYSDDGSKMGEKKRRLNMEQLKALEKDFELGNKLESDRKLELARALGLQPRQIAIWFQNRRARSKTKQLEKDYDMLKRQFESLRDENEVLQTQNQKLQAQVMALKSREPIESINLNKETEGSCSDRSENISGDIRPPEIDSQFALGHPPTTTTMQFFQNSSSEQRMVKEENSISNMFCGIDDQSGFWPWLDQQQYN
Description: split reporter.

The target of assay [3] is T3, Myc-AtHB23 (Arabidopsis thaliana) (UniProt Q8LFD3).
T3 sequence: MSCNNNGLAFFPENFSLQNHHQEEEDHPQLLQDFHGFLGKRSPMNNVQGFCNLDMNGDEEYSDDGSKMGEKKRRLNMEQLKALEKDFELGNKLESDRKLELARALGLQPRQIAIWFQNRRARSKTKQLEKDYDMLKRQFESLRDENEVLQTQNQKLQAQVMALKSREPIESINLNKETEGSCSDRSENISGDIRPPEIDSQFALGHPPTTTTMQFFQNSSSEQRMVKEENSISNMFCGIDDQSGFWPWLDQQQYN
Description: co-IP.

Results are given in words; binding and its absence hold for the method and conditions named. Binding seen in cells or lysates may run through a third protein. Some entries that bind do so weakly or less than the wild type. For part of these data: Sequences can lack the tags named with a protein.

B1: Venus-C:AtPHL1 (protein, UniProt Q8GUN5 1-413)
chain: MTLANDFGYSTAMSSSYSALHTSVEDRYHKLPNSFWVSSGQELMNNPVPCQSVSGGNSGGYLFPSSSGYCNVSAVLPHGRNLQNQPPVSTVPRDRLAMQDCPLIAQSSLINHHPQEFIDPLHEFFDFSDHVPVQNLQAESSGVRVDSSVELHKKSEWQDWADQLISVDDGSEPNWSELLGDSSSHNPNSEIPTPFLDVPRLDITANQQQQMVSSEDQLSGRNSSSSVATSKQRMRWTPELHEAFVEAVNQLGGSERATPKAVLKLLNNPGLTIYHVKSHLQKYRTARYKPETSEVTGEPQEKKMTSIEDIKSLDMKTSVEITQALRLQMEVQKRLHEQLEIQRSLQLQIEKQGRYLQMMFEKQQKIQDNKSSSSEASPKQCNGSFAEVEVGLETLTGDQNESASASRKRVRED
B1: the binding result in assay [1] is on record as “binds”.

B2: Venus-N:PHL1 (protein, UniProt Q8GUN5 1-413)
chain: MTLANDFGYSTAMSSSYSALHTSVEDRYHKLPNSFWVSSGQELMNNPVPCQSVSGGNSGGYLFPSSSGYCNVSAVLPHGRNLQNQPPVSTVPRDRLAMQDCPLIAQSSLINHHPQEFIDPLHEFFDFSDHVPVQNLQAESSGVRVDSSVELHKKSEWQDWADQLISVDDGSEPNWSELLGDSSSHNPNSEIPTPFLDVPRLDITANQQQQMVSSEDQLSGRNSSSSVATSKQRMRWTPELHEAFVEAVNQLGGSERATPKAVLKLLNNPGLTIYHVKSHLQKYRTARYKPETSEVTGEPQEKKMTSIEDIKSLDMKTSVEITQALRLQMEVQKRLHEQLEIQRSLQLQIEKQGRYLQMMFEKQQKIQDNKSSSSEASPKQCNGSFAEVEVGLETLTGDQNESASASRKRVRED
Take B2: the binding entry in assay [2] is recorded as “binds”.

B3: HA-AtPHL1 (protein, UniProt Q8GUN5 1-413)
chain: MTLANDFGYSTAMSSSYSALHTSVEDRYHKLPNSFWVSSGQELMNNPVPCQSVSGGNSGGYLFPSSSGYCNVSAVLPHGRNLQNQPPVSTVPRDRLAMQDCPLIAQSSLINHHPQEFIDPLHEFFDFSDHVPVQNLQAESSGVRVDSSVELHKKSEWQDWADQLISVDDGSEPNWSELLGDSSSHNPNSEIPTPFLDVPRLDITANQQQQMVSSEDQLSGRNSSSSVATSKQRMRWTPELHEAFVEAVNQLGGSERATPKAVLKLLNNPGLTIYHVKSHLQKYRTARYKPETSEVTGEPQEKKMTSIEDIKSLDMKTSVEITQALRLQMEVQKRLHEQLEIQRSLQLQIEKQGRYLQMMFEKQQKIQDNKSSSSEASPKQCNGSFAEVEVGLETLTGDQNESASASRKRVRED
On to B3, for which the binding entry in assay [3] is “binds”.
